Test [1] deals with type 2 IGF receptor (IGF2R) (mouse (endogenous in C2C12)) (UniProt Q07113). The test can be described thus: co-IP; IGF2R immunoprecipitates blotted for Gαi2; untreated, IGF2-treated, anti-IGF2R-treated and IGF2 + anti-IGF2R-treated C2C12 cells; antibody cross-linked to Dynabeads Protein G, 1% Nonidet P-40 buffer, overnight at 4°C.
The target in test [2] is T1, CD20 (store-operated Ca2+ channel CD20) (mouse (endogenous in C2C12)) (UniProt P19437).
T1 sequence: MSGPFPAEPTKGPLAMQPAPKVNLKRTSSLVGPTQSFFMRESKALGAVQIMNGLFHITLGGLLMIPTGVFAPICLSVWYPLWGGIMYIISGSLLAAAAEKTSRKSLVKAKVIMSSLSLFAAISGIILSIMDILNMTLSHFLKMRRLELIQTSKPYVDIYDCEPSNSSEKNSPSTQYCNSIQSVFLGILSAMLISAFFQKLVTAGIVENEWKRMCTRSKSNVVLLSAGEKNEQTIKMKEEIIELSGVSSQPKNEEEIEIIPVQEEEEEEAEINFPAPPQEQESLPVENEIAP
The test can be described thus: co-IP; CD20 immunoprecipitates blotted for ORAI1; untreated and store-depleted C2C12 cells; antibody cross-linked to Dynabeads Protein G, 1% Nonidet P-40 buffer, overnight at 4°C.

By UniProt entry, the sequences of proteins in these tests, tags left out. Residues count along the entry.
UniProt Q07113, residues 36-2483: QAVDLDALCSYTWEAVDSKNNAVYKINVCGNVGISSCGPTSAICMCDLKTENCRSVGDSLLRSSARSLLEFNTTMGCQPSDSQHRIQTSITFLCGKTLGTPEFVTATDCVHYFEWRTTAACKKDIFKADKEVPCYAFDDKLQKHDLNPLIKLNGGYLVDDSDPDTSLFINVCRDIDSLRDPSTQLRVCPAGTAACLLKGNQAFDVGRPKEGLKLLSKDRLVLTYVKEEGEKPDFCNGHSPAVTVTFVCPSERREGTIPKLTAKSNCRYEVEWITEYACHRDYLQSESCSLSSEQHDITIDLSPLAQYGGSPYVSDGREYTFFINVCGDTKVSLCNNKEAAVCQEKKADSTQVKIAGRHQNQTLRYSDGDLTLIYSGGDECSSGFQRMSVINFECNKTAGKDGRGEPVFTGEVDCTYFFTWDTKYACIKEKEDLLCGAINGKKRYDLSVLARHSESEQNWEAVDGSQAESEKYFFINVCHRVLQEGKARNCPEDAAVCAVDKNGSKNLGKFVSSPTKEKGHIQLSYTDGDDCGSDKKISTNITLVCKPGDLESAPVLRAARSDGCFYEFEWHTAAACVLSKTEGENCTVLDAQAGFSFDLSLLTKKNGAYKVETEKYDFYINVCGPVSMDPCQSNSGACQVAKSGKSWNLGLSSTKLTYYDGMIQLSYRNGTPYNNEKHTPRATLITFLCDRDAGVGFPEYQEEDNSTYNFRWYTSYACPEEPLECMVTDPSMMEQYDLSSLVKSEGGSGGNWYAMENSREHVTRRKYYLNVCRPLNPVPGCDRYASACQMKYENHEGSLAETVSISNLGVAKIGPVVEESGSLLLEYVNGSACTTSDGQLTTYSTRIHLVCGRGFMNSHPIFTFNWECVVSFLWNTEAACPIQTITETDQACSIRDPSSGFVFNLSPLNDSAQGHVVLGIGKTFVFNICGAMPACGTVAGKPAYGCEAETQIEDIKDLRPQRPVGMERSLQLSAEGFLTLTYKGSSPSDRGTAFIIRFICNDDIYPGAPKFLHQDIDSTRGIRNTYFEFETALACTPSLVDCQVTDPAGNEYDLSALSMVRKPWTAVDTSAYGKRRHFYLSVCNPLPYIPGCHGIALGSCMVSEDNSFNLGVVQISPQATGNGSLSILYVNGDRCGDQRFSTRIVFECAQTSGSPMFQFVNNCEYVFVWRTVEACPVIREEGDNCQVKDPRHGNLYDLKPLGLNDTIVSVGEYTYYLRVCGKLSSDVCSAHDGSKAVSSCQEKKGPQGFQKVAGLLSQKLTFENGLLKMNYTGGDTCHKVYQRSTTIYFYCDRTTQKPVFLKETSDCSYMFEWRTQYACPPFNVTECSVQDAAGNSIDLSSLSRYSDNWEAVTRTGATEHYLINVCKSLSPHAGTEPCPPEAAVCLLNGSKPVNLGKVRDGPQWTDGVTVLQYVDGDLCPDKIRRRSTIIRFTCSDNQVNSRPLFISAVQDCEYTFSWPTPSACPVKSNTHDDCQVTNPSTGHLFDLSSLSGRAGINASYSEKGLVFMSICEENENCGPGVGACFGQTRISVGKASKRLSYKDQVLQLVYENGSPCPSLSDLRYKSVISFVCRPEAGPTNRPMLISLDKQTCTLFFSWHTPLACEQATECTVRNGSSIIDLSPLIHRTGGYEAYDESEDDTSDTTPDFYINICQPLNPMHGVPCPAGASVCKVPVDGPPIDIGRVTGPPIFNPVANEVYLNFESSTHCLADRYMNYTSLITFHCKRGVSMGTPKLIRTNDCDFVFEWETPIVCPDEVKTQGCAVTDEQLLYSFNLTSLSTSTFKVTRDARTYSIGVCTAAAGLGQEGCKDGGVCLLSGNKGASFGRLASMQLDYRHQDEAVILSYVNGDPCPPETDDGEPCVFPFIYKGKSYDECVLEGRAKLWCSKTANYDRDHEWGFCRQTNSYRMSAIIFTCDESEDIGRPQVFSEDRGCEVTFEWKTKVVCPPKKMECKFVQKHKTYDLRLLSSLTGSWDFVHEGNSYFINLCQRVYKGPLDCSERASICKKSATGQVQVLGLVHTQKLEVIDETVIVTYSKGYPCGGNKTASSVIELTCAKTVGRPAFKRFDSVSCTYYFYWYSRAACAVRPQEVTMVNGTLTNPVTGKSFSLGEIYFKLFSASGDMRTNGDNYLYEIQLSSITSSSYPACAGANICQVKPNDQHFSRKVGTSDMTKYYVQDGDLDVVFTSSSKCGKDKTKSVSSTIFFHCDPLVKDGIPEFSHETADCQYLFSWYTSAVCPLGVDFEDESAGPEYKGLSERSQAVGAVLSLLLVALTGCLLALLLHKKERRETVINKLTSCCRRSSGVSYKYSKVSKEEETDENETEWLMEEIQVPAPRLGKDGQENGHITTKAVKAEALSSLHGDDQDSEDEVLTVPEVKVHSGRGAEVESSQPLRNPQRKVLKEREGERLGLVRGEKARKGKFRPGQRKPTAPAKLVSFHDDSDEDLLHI
UniProt P08752: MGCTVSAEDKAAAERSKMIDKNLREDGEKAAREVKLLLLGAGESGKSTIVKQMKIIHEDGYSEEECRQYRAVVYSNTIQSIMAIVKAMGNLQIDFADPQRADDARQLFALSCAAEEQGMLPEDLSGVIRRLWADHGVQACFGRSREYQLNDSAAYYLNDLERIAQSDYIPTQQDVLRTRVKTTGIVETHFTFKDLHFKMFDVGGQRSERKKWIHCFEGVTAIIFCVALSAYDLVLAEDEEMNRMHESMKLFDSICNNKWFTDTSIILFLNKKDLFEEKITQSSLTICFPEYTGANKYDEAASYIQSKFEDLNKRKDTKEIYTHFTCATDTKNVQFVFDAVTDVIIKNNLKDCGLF
UniProt Q8BWG9: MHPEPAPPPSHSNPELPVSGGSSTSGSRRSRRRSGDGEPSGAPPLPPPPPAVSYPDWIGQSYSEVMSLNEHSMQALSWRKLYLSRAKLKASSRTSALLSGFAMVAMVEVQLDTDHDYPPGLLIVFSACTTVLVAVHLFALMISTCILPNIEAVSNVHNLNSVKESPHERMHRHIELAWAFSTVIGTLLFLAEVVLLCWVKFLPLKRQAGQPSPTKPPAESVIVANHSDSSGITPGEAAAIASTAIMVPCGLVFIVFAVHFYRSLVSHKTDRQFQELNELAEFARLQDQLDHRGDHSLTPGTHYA

Test [3] has as its target T1, CD20 (store-operated Ca2+ channel CD20) (mouse (endogenous in C2C12)). As to the kind of experiment: co-IP; CD20 immunoprecipitates blotted for ORAI1; store-depleted + anti-IGF2R-treated C2C12 cells; antibody cross-linked to Dynabeads Protein G, 1% Nonidet P-40 buffer, overnight at 4°C.
Test [4] shares this target. The test can be described thus: co-IP; CD20 and IGF2R immunoprecipitates blotted for IGF2R and CD20, respectively; untreated and shCD20-treated C2C12 cell membranes and whole lysates; antibodies cross-linked to Dynabeads Protein G, 1% Nonidet P-40 buffer, overnight at 4°C.

These are yes or no findings as the source states them, for the method shown. In cells and extracts the contact can be indirect. Some binding calls cover weakened binding; strength is not graded here.

On to Gαi2 (from UniProt P08752 1-355), for which, in test [1], the binding result is reported as “binds”.

As for “plasma membrane channel ORAI1 (from UniProt Q8BWG9 1-304)”, the binding entry in test [2] is reported as “binds”; in test [3], “binds weakly”.

With “type 2 IGF receptor (IGF2R) (from UniProt Q07113 36-2483)”, the binding entry in test [4] is “binds”.

These data come from PMC6949491.
